The values that follow come from US20220048878A1, “IMPROVEMENT IN OR RELATING TO ORGANIC COMPOUNDS” (GIVAUDAN SA, priority 2018, published 2022).

A short description of series [1]: Odor description. As to conditions: applicant's evaluation, single isomers after preparative or chiral GC.
For series [2] the following is noted: background statement; cited from earlier work.

Entries after “also recorded” stand apart in the source; their conditions may differ. Some compounds share one wording; it may come from a single statement.

Take `CCC(C)=CC1CC(C)CCO1` (stereo not drawn) [trans-E]: in series [1], the Odor description result is “slightly floral, rose oxide, very weak”.

Take `CC/C(C)=C/[C@H]1C[C@@H](C)CCO1` [(2R,4S)-4-methyl-2-((E)-2-methylbut-1-en-1-yl)tetrahydro-2H-pyran]: the Odor description result in series [1] is “very weak, almost odorless”.

Regarding `CC(C)CC1CC(C)CCO1` (stereo not shown) [Dihydroroseoxide, 2-isobutyl-4-methyltetrahydro-2H-pyran], the “Odor profile of known fragrance ingredients” value in series [2] was “too fresh terpenic-terpineol, and less rosy-fruity”.

Regarding `CCC(C)=CC1CC(C)CCO1` (stereo not drawn) [cis-Z], in series [1], the Odor description entry is recorded as “rosy, rose oxide, metallic, strong”.

As for `CCC(C)=CC1CC(C)CCO1` (stereo not drawn) [trans-Z], in series [1], the Odor description entry is listed as “very weak, almost odorless”.

For `CC/C(C)=C/[C@H]1C[C@H](C)CCO1` [(2R,4R)-4-methyl-2-((E)-2-methylbut-1-en-1-yl)tetrahydro-2H-pyran], the Odor description entry in series [1] was “slightly floral, rose oxide, very weak”.

For `CC1CCOC(C=O)C1` (stereo not shown) [Example 1a, 4-Methyltetrahydro-2H-pyran-2-carbaldehyde], the Odor description entry in series [1] is recorded as “green, fatty, trans-2-hexenal, oily”.

Turning to `CC/C(C)=C\[C@@H]1C[C@@H](C)CCO1` [(2S,4S)-4-methyl-2-((Z)-2-methylbut-1-en-1-yl)tetrahydro-2H-pyran], the Odor description result in series [1] is reported as “very weak, almost odorless”.

As to `CCC(C)=C[C@@H]1C[C@H](C)CCO1` (relative stereo) [rel-(2S,4R)-4-methyl-2-(2-methylbut-1-en-1-yl)tetrahydro-2H-pyran], the Odor description result in series [1] was “substantially similar odor characteristics (odor profile and evaporation profile) as Rose Oxide”.

On to `CC/C(C)=C\[C@@H]1C[C@H](C)CCO1` [(2S,4R)-4-methyl-2-((Z)-2-methylbut-1-en-1-yl)tetrahydro-2H-pyran], for which the Odor description entry in series [1] is reported as “rosy, rose oxide, metallic, strong”; in series [1] (listed as 1′a), “main odor vector; also recorded: strong rosy, rose oxide, metallic odor”.

Take `CC/C(C)=C\[C@H]1C[C@@H](C)CCO1` [(2R,4S)-4-methyl-2-((Z)-2-methylbut-1-en-1-yl)tetrahydro-2H-pyran]: in series [1], the Odor description entry is on record as “very weak, almost odorless”.

As for `CC/C(C)=C/[C@@H]1C[C@@H](C)CCO1` [(2S,4S)-4-methyl-2-((E)-2-methylbut-1-en-1-yl)tetrahydro-2H-pyran], in series [1], the Odor description entry was “very weak, almost odorless”.

On to `CC/C(C)=C\[C@H]1C[C@H](C)CCO1` [(2R,4R)-4-methyl-2-((Z)-2-methylbut-1-en-1-yl)tetrahydro-2H-pyran], for which the Odor description result in series [1] is given as “very weak, almost odorless”.

For the molecule `CC/C(C)=C/[C@@H]1C[C@H](C)CCO1` [(2S,4R)-4-methyl-2-((E)-2-methylbut-1-en-1-yl)tetrahydro-2H-pyran], in series [1], the Odor description result was “rosy, rose oxide, metallic, weak”.

As for `C[C@@H]1CCOC(C=O)C1` (stereo partly drawn) [Example 2a, (4R)-4-methyltetrahydro-2H-pyran-2-carbaldehyde], the Odor description entry in series [1] is on record as “green, fatty, oily”.

For `CCC(C)=CC1CC(C)CCO1` (stereo not shown) [Example 1b, 4-methyl-2-(2-methylbut-1-en-1-yl)tetrahydro-2H-pyran], the Odor description entry in series [1] is recorded as “metallic, mineral, rosy, rose oxide”.

In the case of `CC(C)=CC1CC(C)CCO1` (racemic) [Rose Oxide, 4-methyl-2-(2-methylprop-1-en-1-yl)tetrahydro-2H-pyran], the “Odor profile of known fragrance ingredients” value in series [2] is recorded as “floral, rosy, green natural odor profile with some metallic side notes”.

`CCC(C)=CC1CC(C)CCO1` (stereo not drawn) [cis-E]: the Odor description result in series [1] was “rosy, rose oxide, metallic, weak”.
